Data: publication PMC11365244
No constants are given. Whether binding was seen depends on the method and setting. Binding seen in cells or lysates may run through a third protein. Some entries that bind do so weakly or less than the wild type. For part of these data: Where a sequence is shown, tags or fusion partners need not be part of it. Each block holds one molecule with its values, some of them ahead of it.

Sequences of proteins named here, by UniProt entry; tags and fusion partners are left off.
UniProt P03372: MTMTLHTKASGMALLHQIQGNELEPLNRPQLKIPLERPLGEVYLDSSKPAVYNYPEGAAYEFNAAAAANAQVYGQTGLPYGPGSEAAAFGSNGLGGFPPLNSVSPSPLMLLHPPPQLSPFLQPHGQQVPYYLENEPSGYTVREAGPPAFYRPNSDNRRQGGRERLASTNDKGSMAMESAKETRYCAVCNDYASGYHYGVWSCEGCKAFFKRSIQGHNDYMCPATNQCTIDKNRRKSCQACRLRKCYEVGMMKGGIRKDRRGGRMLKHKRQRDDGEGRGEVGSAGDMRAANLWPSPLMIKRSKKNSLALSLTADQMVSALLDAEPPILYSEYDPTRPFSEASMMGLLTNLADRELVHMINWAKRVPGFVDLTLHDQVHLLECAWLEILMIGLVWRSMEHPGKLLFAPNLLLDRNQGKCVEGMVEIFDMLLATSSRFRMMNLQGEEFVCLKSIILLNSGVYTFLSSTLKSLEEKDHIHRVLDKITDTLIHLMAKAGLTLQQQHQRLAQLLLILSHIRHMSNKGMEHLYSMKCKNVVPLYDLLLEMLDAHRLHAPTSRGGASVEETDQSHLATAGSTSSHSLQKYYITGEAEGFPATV

Assays:
Flag-USP36 (human) = biological target: T1, Flag-USP36 (human) (UniProt Q9P275); assay: co-IP; HEK293T cells co-transfected with 2 µg USP36 plasmid and full-length or mutant HA-ERα; after 24 h 10 μM MG132 for 6 h; NP-40 lysis buffer; IP with anti-Flag antibody, blot with anti-HA antibody
T1 sequence: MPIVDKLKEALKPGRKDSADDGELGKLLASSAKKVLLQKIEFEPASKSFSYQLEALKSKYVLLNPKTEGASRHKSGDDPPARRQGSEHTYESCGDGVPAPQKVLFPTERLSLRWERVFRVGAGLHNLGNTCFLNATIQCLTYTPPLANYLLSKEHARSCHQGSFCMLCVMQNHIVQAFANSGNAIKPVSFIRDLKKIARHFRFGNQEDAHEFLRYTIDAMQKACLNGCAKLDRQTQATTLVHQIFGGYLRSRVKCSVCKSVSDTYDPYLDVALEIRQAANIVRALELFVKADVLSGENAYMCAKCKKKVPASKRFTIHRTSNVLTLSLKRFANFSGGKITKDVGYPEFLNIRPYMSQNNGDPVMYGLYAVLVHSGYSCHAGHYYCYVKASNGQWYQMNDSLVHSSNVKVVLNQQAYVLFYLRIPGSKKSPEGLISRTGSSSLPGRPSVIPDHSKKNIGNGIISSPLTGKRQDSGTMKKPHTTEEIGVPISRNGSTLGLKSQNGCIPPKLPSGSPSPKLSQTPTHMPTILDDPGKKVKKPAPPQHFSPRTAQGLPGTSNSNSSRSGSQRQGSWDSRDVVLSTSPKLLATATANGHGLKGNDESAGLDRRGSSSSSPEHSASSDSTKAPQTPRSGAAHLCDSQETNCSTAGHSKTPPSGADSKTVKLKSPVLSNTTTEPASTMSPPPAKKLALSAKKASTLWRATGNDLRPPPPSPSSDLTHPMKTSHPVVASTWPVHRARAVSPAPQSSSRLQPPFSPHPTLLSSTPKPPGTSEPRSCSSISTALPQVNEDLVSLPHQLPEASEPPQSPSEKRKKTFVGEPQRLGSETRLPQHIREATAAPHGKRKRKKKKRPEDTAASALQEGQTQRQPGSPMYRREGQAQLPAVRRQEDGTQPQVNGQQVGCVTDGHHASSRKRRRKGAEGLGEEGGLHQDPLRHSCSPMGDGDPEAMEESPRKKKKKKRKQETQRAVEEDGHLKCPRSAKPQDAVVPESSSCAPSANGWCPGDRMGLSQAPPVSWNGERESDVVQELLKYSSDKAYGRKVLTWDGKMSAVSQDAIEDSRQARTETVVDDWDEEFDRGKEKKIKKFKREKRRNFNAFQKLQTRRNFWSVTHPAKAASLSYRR

full-length HA-ERα = full-length HA-ERα (UniProt P03372); assay: co-IP; IP with anti-HA antibody (HA-ERα), USP36 domains detected with anti-Flag antibody; cell line not named for this panel
[1] = biological target: Estrogen receptor α (ERα), endogenous (human (endogenous in MCF-7)) (UniProt P03372); assay: co-IP; endogenous proteins; lysates of MCF-7 cells precipitated with anti-ERα or anti-USP36 antibodies, precipitates immunoblotted with 2% input sample

binding (Flag-USP36 (human)): binds
Molecule: full-length HA-ERα (from UniProt P03372 1-595) (receptor)

binding (full-length HA-ERα): binds
B1: Flag-USP36 deletion mutant (residues 1–420), USP domain (domain or fragment, UniProt Q9P275 1-420)
chain: MPIVDKLKEALKPGRKDSADDGELGKLLASSAKKVLLQKIEFEPASKSFSYQLEALKSKYVLLNPKTEGASRHKSGDDPPARRQGSEHTYESCGDGVPAPQKVLFPTERLSLRWERVFRVGAGLHNLGNTCFLNATIQCLTYTPPLANYLLSKEHARSCHQGSFCMLCVMQNHIVQAFANSGNAIKPVSFIRDLKKIARHFRFGNQEDAHEFLRYTIDAMQKACLNGCAKLDRQTQATTLVHQIFGGYLRSRVKCSVCKSVSDTYDPYLDVALEIRQAANIVRALELFVKADVLSGENAYMCAKCKKKVPASKRFTIHRTSNVLTLSLKRFANFSGGKITKDVGYPEFLNIRPYMSQNNGDPVMYGLYAVLVHSGYSCHAGHYYCYVKASNGQWYQMNDSLVHSSNVKVVLNQQAYVLFY

binding [1]: binds
B2: Ubiquitin-specific peptidase 36 (USP36), endogenous (enzyme, UniProt Q9P275 1-1123)
chain: MPIVDKLKEALKPGRKDSADDGELGKLLASSAKKVLLQKIEFEPASKSFSYQLEALKSKYVLLNPKTEGASRHKSGDDPPARRQGSEHTYESCGDGVPAPQKVLFPTERLSLRWERVFRVGAGLHNLGNTCFLNATIQCLTYTPPLANYLLSKEHARSCHQGSFCMLCVMQNHIVQAFANSGNAIKPVSFIRDLKKIARHFRFGNQEDAHEFLRYTIDAMQKACLNGCAKLDRQTQATTLVHQIFGGYLRSRVKCSVCKSVSDTYDPYLDVALEIRQAANIVRALELFVKADVLSGENAYMCAKCKKKVPASKRFTIHRTSNVLTLSLKRFANFSGGKITKDVGYPEFLNIRPYMSQNNGDPVMYGLYAVLVHSGYSCHAGHYYCYVKASNGQWYQMNDSLVHSSNVKVVLNQQAYVLFYLRIPGSKKSPEGLISRTGSSSLPGRPSVIPDHSKKNIGNGIISSPLTGKRQDSGTMKKPHTTEEIGVPISRNGSTLGLKSQNGCIPPKLPSGSPSPKLSQTPTHMPTILDDPGKKVKKPAPPQHFSPRTAQGLPGTSNSNSSRSGSQRQGSWDSRDVVLSTSPKLLATATANGHGLKGNDESAGLDRRGSSSSSPEHSASSDSTKAPQTPRSGAAHLCDSQETNCSTAGHSKTPPSGADSKTVKLKSPVLSNTTTEPASTMSPPPAKKLALSAKKASTLWRATGNDLRPPPPSPSSDLTHPMKTSHPVVASTWPVHRARAVSPAPQSSSRLQPPFSPHPTLLSSTPKPPGTSEPRSCSSISTALPQVNEDLVSLPHQLPEASEPPQSPSEKRKKTFVGEPQRLGSETRLPQHIREATAAPHGKRKRKKKKRPEDTAASALQEGQTQRQPGSPMYRREGQAQLPAVRRQEDGTQPQVNGQQVGCVTDGHHASSRKRRRKGAEGLGEEGGLHQDPLRHSCSPMGDGDPEAMEESPRKKKKKKRKQETQRAVEEDGHLKCPRSAKPQDAVVPESSSCAPSANGWCPGDRMGLSQAPPVSWNGERESDVVQELLKYSSDKAYGRKVLTWDGKMSAVSQDAIEDSRQARTETVVDDWDEEFDRGKEKKIKKFKREKRRNFNAFQKLQTRRNFWSVTHPAKAASLSYRR
